Source: PubChem BioAssay AID1347131 (National Center for Advancing Translational Sciences (NCATS), 2019)
The campaign covered roughly 410,000 compounds. About 2,000 (0.49%) were called active. This list was built around the results that the source calls inconclusive (neither active nor inactive); the mix of calls is not that of the screen. The call rests on the fitted dose curve; tested in HEK293 reporter line. Potencies beside an inconclusive call are fits to weak or partial responses and may not hold up.

Assay: qHTS Assay for Foot and Mouth Disease Virus Antivirals: Primary Screen against the MLPCN compound library; further: nearly all actives have a fitted effect of over 55% in size
Conditions: FMDV antiviral cell-based qHTS; series mostly up to 57.9 µM
Potency means the concentration at half of the fitted maximal effect.

| SMILES | Potency |
| --- | --- |
| Cc1ccc(S(=O)(=O)Nc2cccc3ncccc23)s1 | inconclusive: 28.2 µM [inhibitor, partial curve, poor fit] |
| O=C(COc1ccccc1-c1ccccc1)NCCN1C(=O)S/C(=C\c2cccnc2)C1=O | inconclusive: 31.6 µM [inhibitor, partial curve, poor fit] |
| COc1ccc(Cl)cc1N1CC(c2nc3ccccc3[nH]2)CC1=O (stereo unspecified) | inconclusive: 2.82 µM [inhibitor, full curve] |
| O=C(O)c1cc(-c2ccc(Cl)cc2)n(-c2cccc(Cl)c2)n1 | inconclusive: 3.98 µM [inhibitor, full curve] |
| O=C(CCC1CCCCC1)NCCN1C2=NC[C@@H](Cc3ccccc3)N2C[C@H]1Cc1ccc(O)cc1 | inconclusive: 3.98 µM [inhibitor, full curve] |
| Fc1cccc(Nc2nc(-c3ccncc3)nc3ccccc23)c1 | inconclusive: 25.1 µM [inhibitor, partial curve, poor fit] |
| COc1cccc(NC(=O)n2ncc3c(C)cccc32)c1 | inconclusive: 35.5 µM [inhibitor, single point] |
| Clc1cccc(-c2nc3nc4ccccc4nc3n2Cc2ccccc2)c1 | inconclusive: 39.8 µM [inhibitor, partial curve, poor fit] |
| CCOC(=O)[C@]12Cc3c(cc(OC)c(OC)c3OC)[C@H]1N(C(C)C)C(=O)c1cc(OC)ccc12 | inconclusive: 14.1 µM [inhibitor, partial curve, poor fit] |
| Cc1ccc(S(=O)(=O)Nc2cccc3cccnc23)cc1 | inconclusive: 28.2 µM [inhibitor, partial curve, poor fit] |
| Cc1ccc(S(=O)(=O)C2(C(=O)NCc3ccc4c(c3)OCO4)CC2)cc1 | inconclusive: 14.1 µM [inhibitor, partial curve] |
| COc1ccc(Cl)cc1NC(=O)Cn1cnc2c1c(=O)n(C)c(=O)n2C | inconclusive: 12.6 µM [inhibitor, partial curve, poor fit] |
| Cc1cc(NC(=O)CC2CCCC2)n(-c2nc3ccccc3[nH]2)n1 | inconclusive: 28.2 µM [inhibitor, partial curve, poor fit] |
| Cn1nnnc1Sc1ncnc2scc(-c3ccc(Cl)cc3)c12 | inconclusive: 20 µM [inhibitor, partial curve, poor fit] |
| CC(NC(=O)COC(=O)/C(=C/c1cccs1)c1cccs1)c1ccccc1 (stereo unspecified) | inconclusive: 22.4 µM [inhibitor, single point] |
| COc1ccc(C)cc1-n1c(=O)c2ccccc2c2ccccc2c1=O | inconclusive: 25.1 µM [inhibitor, partial curve, poor fit] |

3 entries from above, sorted by count of non-hydrogen atoms, ascending:

| SMILES | Potency |
| --- | --- |
| Cc1ccc(S(=O)(=O)C2(C(=O)NCc3ccc4c(c3)OCO4)CC2)cc1 | inconclusive: 14.1 µM [inhibitor, partial curve] |
| O=C(COc1ccccc1-c1ccccc1)NCCN1C(=O)S/C(=C\c2cccnc2)C1=O | inconclusive: 31.6 µM [inhibitor, partial curve, poor fit] |
| O=C(CCC1CCCCC1)NCCN1C2=NC[C@@H](Cc3ccccc3)N2C[C@H]1Cc1ccc(O)cc1 | inconclusive: 3.98 µM [inhibitor, full curve] |
